Results: patent US12678388B2, “Dermatological compositions and use thereof” (BONE SCI. BIO LTD., priority 2021, dated 2026)
Part of at least one peptide drawing is inferred or uncertain, most often the ends. Peptide text beside a SMILES is read from it.

Columns and labels:
[1] = Net weight of gels on metal discs incubated in fetal calf serum; type: physicochemical; details: for Gels mass on discs: fetal calf serum
albino rabbits = assay: Implantation test (local implantation effects, femur); type: in vivo; details: 3% w/v PFD5 formulation; 4 weeks
Procedure: In order to test the local implantation effects of a 3% w/v PFD5 formulation according to certain embodiments of the present invention, an implantation test was performed.
10 albino rabbits were used for the test: each animal was implanted with the test sample at the right femur and with negative control (USP reference standard control plastic, HDPE) at the left femur, for a total of two sites/animal.
One explant time was scheduled after 4 weeks. Animals were daily submitted to general objective exam with the purpose to detect possible local effects due to the sample. The behavior of animals was observed and all abnormalities were recorded. During the explant, all implanted sites with the test sample and with the negative control were harvested and observed macroscopically to determine any injuries. Implantation sites of each animal and local lymph nodes were preserved in formalin 10% buffer solution and used for histological evaluation. […] Nothing abnormal was detected macroscopically in both treated and control sites of all animals.

[2] = TEM imaging of diluted hydrogels; type: physicochemical; details: PFD5 3.5% w/v hydrogel diluted 1:100 v/v in DIW
[3] = Cohesivity assessment (Gavard-Sundaram scale); type: physicochemical; details: methylene blue stained gel injected into stirred HEPES 20 mM with 2.5 mM CaCl2; PFD5 3.5% w/v
[4] = Swelling assessment in Fetal Bovine Serum; type: physicochemical
[5] = Resistance to oxidation (H2O2/CuSO4), flow and extrusion force; type: physicochemical; details: PFD5 3.5% w/v
[6] = Viscoelastic properties before and after autoclave sterilization; type: physicochemical; details: PFD5 3% w/v
[7] = Extrusion force measurement through needle; type: physicochemical
rats = assay: Tissue augmentation in subcutaneous rat model; type: in vivo; details: PFD5 3.5% w/v
Procedure: The effect of PFD5 3.5% w/v hydrogel on tissue augmentation was tested in a subcutaneous rat model and compared to the effect obtained in rats treated with a commercially available hyaluronic acid dermal filler. Individual rats were treated with 0.2 ml of PFD5 hydrogel or HA injection administered subcutaneously above the parietal bone. Animals were held for three days, one month and four months after which implants were excised and underwent histological examination and analysis for the area occupied by the implant. […] Due to the lower swellability of the PFD5 hydrogel as compared to the HA hydrogel, the area remained more invariable.

[8] = Rheology by dynamic frequency sweep vs commercial crosslinked HA; type: physicochemical; details: PFD5 2.5% w/v in 45 mM HCl

O=C(O)C[C@H](NC(=O)[C@@H]1CCCN1)C(=O)N[C@@H](Cc1ccccc1)C(=O)N[C@@H](CC(=O)O)C(=O)N[C@@H](Cc1ccccc1)C(=O)N[C@@H](CC(=O)O)C(=O)N[C@@H](Cc1ccccc1)C(=O)N[C@@H](CC(=O)O)C(=O)N[C@@H](Cc1ccccc1)C(=O)N[C@@H](CC(=O)O)C(=O)N[C@@H](Cc1ccccc1)C(=O)N[C@@H](CC(=O)O)C(=O)N1CCC[C@H]1C(=O)O [PFD5, Pro-(Asp-Phe)5-Asp-Pro] (H-PDFDFDFDFDFDP-OH)
cohesiveness and dissolution in fetal calf serum (naked eye) ([1]; 17 h and 64 h, PFD5 2.5% w/v): cohesiveness and slow dissolution or degradation
Gels mass on discs ([1]; T = 0, PFD5 2.5% w/v hydrogel): 48.1 mg
Gels mass on discs ([1]; T = 1 h): 45.7 mg
Gels mass on discs ([1]; T = 4 h): 45 mg
Gels mass on discs ([1]; T = 17 h): 44.9 mg
Gels mass on discs ([1]; T = 64 h): 46 mg
resorption and tissue regeneration (H&E histology) (albino rabbits): Complete resorption with neovascularization
fibril thickness [2]: about 2 nm
fibril width (length of PFD5 in β-sheet conformation) ([2]; 0.345×13): 4.5 nm
cohesiveness on Gavard-Sundaram cohesivity 1-5 scale [3]: 4.5
swelling ratio ([4]; PFD5 1.5-5% w/v hydrogels, FBS): 1.2-1.5
swelling ratio (final hydrogel weight)/(initial hydrogel weight) ([4]; PFD5 2.5% w/v, 1:2 v/v FBS, 37 °C, 1, 4, 7 and 11 days): 1.3-1.5 w/w
mechanical properties after oxidative conditions by extrusion force ([5]; 30G needle): maintained its mechanical properties
resistance to flow on glass slide after exposure to oxidizing solution ([5]; H2O2/CuSO4, 30 minutes): maintained the drop shape
G′ and G″ compared to HA1 ([6]; before and after sterilization): higher G′ and G″ values
effect of autoclave sterilization on rheological properties (G′, G″, viscosity) ([6]; 121° C. for 15 minutes): minimal effect
average extrusion force ([7]; 27 G needle, PFD5 2.5 and 3% w/v): 8-9 N
extrusion force pattern during injection ([7]; full extrusion force profile): injected more uniformly
average area occupied by the implant (histological sections) (rats; 0.2 ml subcutaneous above the parietal bone, three days, one month, four months): comparable to that occupied by the HA hydrogel
adipocytes viability near implant (histology) (rats; subcutaneous): supported adipocytes viability at its proximity
resorption and biodegradation of implant (rats; subcutaneous): full resorption by macrophages and continuous biodegradation
elastic modulus G′ compared to commercial crosslinked HA dermal filler [8]: higher G′
